The list is a part of this screen's results and no random one: it is rich in T/C values a quarter to a half above the control, in often repeated tests (any T/C) and in doses without a T/C. Further doses and runs are listed elsewhere. T/C is the treated group as % of the vehicle group. Some entries give survivors of the animals treated and no T/C: the source files T/C as zero there, which appears to mark a toxic dose or a test without result, not a measured value. Some survivor counts are full or nearly so, which does not show that the dose was tolerated: survival well below the control is almost never listed, so the zero probably covers shortened survival too. Counts of survivors are from the toxicity check (mostly the fifth day) where no day follows; animals may have died later. Schedules are NCI's codes, read here as Q, the interval in days (D) or hours (H), X, the number of doses. Some schedules carry Z or #; the key to these is not given. Some structures stand for samples that the source files as different forms (salt, stereo form or complex); doses refer to the form tested. Some entries were tested several times; the values are given in rising order. Where survival is the endpoint, this PubChem deposit counts one and a half times the control or more as active, and values a quarter to a half above the control carry no call in these data; other NCI protocols may use other cut-offs. Some T/C values carry the count of animals alive at the toxicity check (mostly the fifth day); where none is given, no animal had died by that day.
Test system: L1210 leukemia ip in BDF1 mice, survival T/C
Assay: NCI In Vivo Anticancer Drug Screen. Data for tumor model L1210 Leukemia (intraperitoneal) in B6D2F1 (BDF1) mice
Conditions: T/C endpoint: mean survival time, higher T/C = longer survival
[1] = dose: 200.0 mg/kg/injection, schedule: Q01DX009 (ip), vehicle: saline
[2] = dose: 400.0 mg/kg/injection, schedule: Q04DX003 (ip), vehicle: Klucel (hydroxypropylcellulose) (HPC)
[3] = dose: 400.0 mg/kg/injection, schedule: Q01DX001 (ip), vehicle: saline with Tween-80
[4] = dose: 200.0 mg/kg/injection, schedule: Q01DX001 (ip), vehicle: Klucel (hydroxypropylcellulose) (HPC)
[5] = dose: 200.0 mg/kg/injection, schedule: Q01DX009 (ip), vehicle: Klucel (hydroxypropylcellulose) (HPC)

NCCO[Si](OCCN)(OCCN)OCCN
survivor count [1]: 0 of 3

[O]=[Sb]([OH])([OH])[c]1ccccc1
survivor count (dose: 200.0 mg/kg/injection, schedule: Q01DX009 (sc), vehicle: olive oil, sesame oil, peanut oil): 0 of 6 | survivor count (dose: 200.0 mg/kg/injection, schedule: Q04DX002 (ip), vehicle: saline with Tween-80): 3 of 3 | survivor count (dose: 400.0 mg/kg/injection, schedule: Q04DX002 (ip), vehicle: saline with Tween-80): 0 of 3 | survivor count (dose: 400.0 mg/kg/injection, schedule: Q04DX003 (sc), vehicle: olive oil, sesame oil, peanut oil): 0 of 6

[O-][n+]1onc2ncccc21
survivor count (dose: 200.0 mg/kg/injection, schedule: Q04DX003 (ip), vehicle: Klucel (hydroxypropylcellulose) (HPC)): 1 of 6 | survivor count [2]: 0 of 6

COc1ccc(NC(=O)N(CCCl)N=O)cc1
T/C (dose: 2.5 mg/kg/injection, schedule: Q01DX Z (ip), vehicle: carboxymethylcellulose (CMC)): 131 % of control | T/C (dose: 10.0 mg/kg/injection, schedule: Q01DX Z (ip), vehicle: carboxymethylcellulose (CMC)): 144 % of control | T/C (dose: 15.0 mg/kg/injection, schedule: Q01DX001 (ip), vehicle: saline): 141 % of control | T/C (dose: 15.0 mg/kg/injection, schedule: Q01DX Z (ip), vehicle: carboxymethylcellulose (CMC)): 146 % of control | T/C (dose: 22.0 mg/kg/injection, schedule: Q01DX015 (ip), vehicle: saline): 126 % of control | survivor count (dose: 22.0 mg/kg/injection, schedule: Q01DX Z (ip), vehicle: carboxymethylcellulose (CMC)): 6 of 6 | T/C (dose: 30.0 mg/kg/injection, schedule: Q01DX001 (ip), vehicle: saline): 146 % of control [9 of 10 alive] | survivor count (dose: 158.4 mg/kg/injection, schedule: Q01DX001 (ip), vehicle: carboxymethylcellulose (CMC)): 9 of 10

O=C([O][Sb]([O]C(=O)C(F)(F)F)([c]1ccccc1)([c]1ccccc1)[c]1ccccc1)C(F)(F)F
survivor count [3]: 0 of 6

CCCOCC(O)C[As](=O)(O)c1cccc(Cl)c1 (configuration not stated)
survivor count (dose: 25.0 mg/kg/injection, schedule: Q01DX001 (ip), vehicle: saline with Tween-80): 4 of 6 | survivor count (dose: 50.0 mg/kg/injection, schedule: Q01DX001 (ip), vehicle: saline with Tween-80): 0 of 6 | survivor count (dose: 100.0 mg/kg/injection, schedule: Q01DX001 (ip), vehicle: saline with Tween-80): 0 of 6 | survivor count (dose: 200.0 mg/kg/injection, schedule: Q01DX001 (ip), vehicle: saline with Tween-80): 0 of 6 | survivor count [3]: 0 of 6

CC[P+](CC)(CC)CCCCI
survivor count (dose: 100.0 mg/kg/injection, schedule: Q01DX009 (ip), vehicle: saline): 0 of 6 | survivor count (dose: 100.0 mg/kg/injection, schedule: Q04DX003 (ip), vehicle: saline): 1 of 6 and 3 of 6 | survivor count [1]: 0 of 6 | survivor count (dose: 200.0 mg/kg/injection, schedule: Q04DX003 (ip), vehicle: saline): 0 of 6 | survivor count (dose: 400.0 mg/kg/injection, schedule: Q04DX003 (ip), vehicle: saline): 0 of 6

CC(=O)OI(OC(C)=O)c1cccc(C)c1
survivor count (dose: 400.0 mg/kg/injection, schedule: Q01DX009 (ip), vehicle: Klucel (hydroxypropylcellulose) (HPC)): 1 of 6

NC(N)=N/N=C(\C=N\N=C(N)N)c1ccc(-c2ccc(C(/C=N/N=C(N)N)=N\N=C(N)N)cc2)cc1
survivor count (dose: 15.0 mg/kg/injection, schedule: Q01DX Z (ip), vehicle: saline): 1 of 6 | survivor count (dose: 30.0 mg/kg/injection, schedule: Q01DX Z (ip), vehicle: saline): 0 of 6 | survivor count (dose: 60.0 mg/kg/injection, schedule: Q01DX Z (ip), vehicle: saline): 0 of 6 | survivor count (dose: 120.0 mg/kg/injection, schedule: Q01DX Z (ip), vehicle: saline): 0 of 6

CC(=O)Oc1ccc(N2C(=O)C=CC2=O)cc1 (tested in a mixture with another compound)
survivor count (dose: 100.0 mg/kg/injection, schedule: Q04DX003 (ip), vehicle: other): 6 of 6 | survivor count (dose: 200.0 mg/kg/injection, schedule: Q04DX003 (ip), vehicle: other): 3 of 6 and 6 of 6 | survivor count (dose: 400.0 mg/kg/injection, schedule: Q04DX003 (ip), vehicle: other): 0 of 6

O=C(Nc1cccc(C2=NCCN2)c1)Nc1cccc(C2=NCCN2)c1
survivor count (dose: 50.0 mg/kg/injection, schedule: Q01DX Z (ip), vehicle: water): 0 of 6

CC(=O)NNC(=O)c1ccccn1
survivor count (dose: 256.0 mg/kg/injection, schedule: Q01DX009 (oral), vehicle: saline): 4 of 10 | survivor count (dose: 512.0 mg/kg/injection, schedule: Q01DX001 (ip), vehicle: saline): 2 of 10 | survivor count (dose: 512.0 mg/kg/injection, schedule: Q01DX001 (oral), vehicle: saline): 0 of 10 | survivor count (dose: 512.0 mg/kg/injection, schedule: Q01DX009 (oral), vehicle: saline): 0 of 10 | survivor count (dose: 512.0 mg/kg/injection, schedule: Q04DX003 (ip), vehicle: saline): 0 of 10 | survivor count (dose: 512.0 mg/kg/injection, schedule: Q08DX002 (ip), vehicle: saline): 2 of 10 | survivor count (dose: 1024.0 mg/kg/injection, schedule: Q01DX001 (oral), vehicle: saline): 0 of 10

Nc1cc(Cl)c2[nH]cnc2n1
T/C (dose: 14.0 mg/kg/injection, schedule: Q01DX009 (ip), vehicle: Klucel (hydroxypropylcellulose) (HPC)): 125 % of control | T/C (dose: 21.0 mg/kg/injection, schedule: Q01DX009 (ip), vehicle: Klucel (hydroxypropylcellulose) (HPC)): 135 % of control | T/C (dose: 33.0 mg/kg/injection, schedule: Q01DX009 (ip), vehicle: Klucel (hydroxypropylcellulose) (HPC)): 148 % of control | T/C (dose: 40.0 mg/kg/injection, schedule: Q04DX003 (ip), vehicle: Klucel (hydroxypropylcellulose) (HPC)): 125 % of control | T/C (dose: 60.0 mg/kg/injection, schedule: Q04DX003 (ip), vehicle: Klucel (hydroxypropylcellulose) (HPC)): 129 % of control | T/C (dose: 90.0 mg/kg/injection, schedule: Q04DX003 (ip), vehicle: Klucel (hydroxypropylcellulose) (HPC)): 132 % of control | T/C (dose: 100.0 mg/kg/injection, schedule: Q04DX003 (ip), vehicle: Klucel (hydroxypropylcellulose) (HPC)): 130 % of control | T/C (dose: 100.0 mg/kg/injection, schedule: Q04DX003 (ip), vehicle: water): 127 % of control | T/C (dose: 133.0 mg/kg/injection, schedule: Q04DX003 (ip), vehicle: Klucel (hydroxypropylcellulose) (HPC)): 137 % of control | T/C [4]: 126 % of control | survivor count [5]: 6 of 6 | T/C (dose: 200.0 mg/kg/injection, schedule: Q04DX003 (ip), vehicle: Klucel (hydroxypropylcellulose) (HPC), evaluated on day 20): 149 % of control | T/C (dose: 200.0 mg/kg/injection, schedule: Q04DX003 (ip), vehicle: Klucel (hydroxypropylcellulose) (HPC), evaluated on day 30): 149 % of control | T/C (dose: 200.0 mg/kg/injection, schedule: Q04DX003 (ip), vehicle: water): 145 % of control | T/C (dose: 300.0 mg/kg/injection, schedule: Q04DX003 (ip), vehicle: Klucel (hydroxypropylcellulose) (HPC)): 137 % of control | survivor count (dose: 400.0 mg/kg/injection, schedule: Q01DX001 (ip), vehicle: Klucel (hydroxypropylcellulose) (HPC)): 1 of 6 | survivor count [2]: 1 of 6 | survivor count (dose: 400.0 mg/kg/injection, schedule: Q04DX003 (ip), vehicle: water): 2 of 6

COc1ccc(/C(N=Nc2ccccc2)=N/N=C(N)N)cc1
survivor count (dose: 100.0 mg/kg/injection, schedule: Q01DX001 (ip), vehicle: steroid suspending solution): 3 of 6 | survivor count (dose: 200.0 mg/kg/injection, schedule: Q01DX001 (ip), vehicle: steroid suspending solution): 1 of 6 | survivor count (dose: 400.0 mg/kg/injection, schedule: Q01DX001 (ip), vehicle: steroid suspending solution): 2 of 6

CCNc1ccc(/C=C2\C=Cc3ccccc32)cc1
survivor count [5]: 5 of 6 | survivor count (dose: 300.0 mg/kg/injection, schedule: Q01DX001 (ip), vehicle: olive oil, sesame oil, peanut oil): 2 of 6

CC12CCC3C4CCC(O)CC4=CCC3C1CCC2=O (configuration not stated)
survivor count [4]: 3 of 3

CC(=O)C(C#N)c1ccccc1 (configuration not stated)
survivor count (dose: 100.0 mg/kg/injection, schedule: Q01DX009 (ip), vehicle: Klucel (hydroxypropylcellulose) (HPC)): 1 of 6

Source: PubChem BioAssay AID248 (DTP/NCI, 2004)
